Data as given in PubChem BioAssay AID1224830 (NIAID, 2016).
The whole screen tested about 18,000 reagents; this is a random part of them. Of all reagents, about 2,900 (16%) are marked active. 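Calls are made per well; low scores hint the gene aids the LPS response, high scores that it dampens it.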 Repeated entries: four replicate wells of each siRNA pool.

Purpose: 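Host factors that control LPS-induced TNF expression in human macrophages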 (primary screen)
Cell system: human THP-1 monocytic leukaemia cells, TNF dual-luciferase reporter clone, PMA-differentiated to macrophage-like cells
Reagents: siRNA pool against human genes, 50 nM
Timing: LPS for 4 h, given about 3 days after siRNA transfection
Challenge: bacterial LPS (TLR4 ligand), 10 ng/ml
Read-out: 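Ratio of firefly to renilla light, scaled to the plate median and expressed as a robust z-score per replicate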
Scale: TNF reporter robust z-score: higher = stronger TNF reporter response to LPS
Active means: 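Each well counts as active if its z-score is over 2.8 or under -1.5; controls are left without a call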

| Target gene | TNF reporter robust z-score | Call |
| --- | --- | --- |
| ZNF467 | 0.02 | inactive |
| ZNF467 | 0.64 | inactive |
| ZNF467 | -0.83 | inactive |
| ZNF467 | 0.59 | inactive |
| SLC38A3 | -1.4 | inactive |
| SLC38A3 | -1.8 | active |
| SLC38A3 | -1.5 | inactive |
| SLC38A3 | -1.84 | active |
| CTDNEP1 | 0.82 | inactive |
| CTDNEP1 | 0.5 | inactive |
| CTDNEP1 | 0.39 | inactive |
| CTDNEP1 | 2.96 | active |
| HPCAL4 | -0.8 | inactive |
| HPCAL4 | -1.52 | active |
| HPCAL4 | -1.34 | inactive |
| HPCAL4 | -1.24 | inactive |
| PROSER3 | -1.47 | inactive |
| PROSER3 | -1.01 | inactive |
| PROSER3 | -1.23 | inactive |
| PROSER3 | -0.71 | inactive |
| KRTAP3-3 | -0.42 | inactive |
| KRTAP3-3 | -0.18 | inactive |
| KRTAP3-3 | -1.29 | inactive |
| KRTAP3-3 | -0.86 | inactive |
| ECE2 | -0.04 | inactive |
| ECE2 | 0.77 | inactive |
| ECE2 | -0.23 | inactive |
| ECE2 | 0.5 | inactive |
| ECE2 | 0.64 | inactive |
| ECE2 | 0.79 | inactive |
| ECE2 | 0.2 | inactive |
| ECE2 | -0.45 | inactive |
| ASCL2 | -0.25 | inactive |
| ASCL2 | 1.1 | inactive |
| ASCL2 | 0.65 | inactive |
| ASCL2 | -0.87 | inactive |
| PIGL | -0.98 | inactive |
| PIGL | -0.29 | inactive |
| PIGL | -0.48 | inactive |
| PIGL | 0.04 | inactive |
| BLID | -0.32 | inactive |
| BLID | -0.52 | inactive |
| BLID | 0.17 | inactive |
| BLID | -0.14 | inactive |
| ALX1 | 0.43 | inactive |
| ALX1 | 2.32 | inactive |
| ALX1 | 0.82 | inactive |
| ALX1 | 4.68 | active |
| ZNF480 | -0.17 | inactive |
| ZNF480 | -0.31 | inactive |
| ZNF480 | -0.2 | inactive |
| ZNF480 | 0.44 | inactive |
| BORCS5 | -0.32 | inactive |
| BORCS5 | 0.69 | inactive |
| BORCS5 | 1.27 | inactive |
| BORCS5 | 0.23 | inactive |
| ANKS6 | 0.37 | inactive |
| ANKS6 | 0.71 | inactive |
| ANKS6 | -0.16 | inactive |
| ANKS6 | 0.19 | inactive |
| NCAN | 0.57 | inactive |
| NCAN | -0.56 | inactive |
| NCAN | 0.36 | inactive |
| NCAN | 1.26 | inactive |
| PREX2 | 0.99 | inactive |
| PREX2 | -0.48 | inactive |
| PREX2 | 0.28 | inactive |
| PREX2 | 0.15 | inactive |
| FKBPL | -0.02 | inactive |
| FKBPL | 0.14 | inactive |
| FKBPL | -0.71 | inactive |
| PANX1 | 0.33 | inactive |
| PANX1 | -0.05 | inactive |
| PANX1 | 1.55 | inactive |
| PANX1 | 0.57 | inactive |
| DDX28 | 0.74 | inactive |
| DDX28 | 0.98 | inactive |
| DDX28 | -0.55 | inactive |
| DDX28 | 0.83 | inactive |
| MFN1 | -0.1 | inactive |
| MFN1 | -0.32 | inactive |
| MFN1 | -0.56 | inactive |
| MFN1 | 1.1 | inactive |
| STK31 | 0.67 | inactive |
| STK31 | 0.23 | inactive |
| STK31 | 0.24 | inactive |
| STK31 | 1.11 | inactive |
| GOLGA3 | 0.82 | inactive |
| GOLGA3 | 0.31 | inactive |
| GOLGA3 | 0.01 | inactive |
| GOLGA3 | 1.85 | inactive |
| ZKSCAN7 | 2.12 | inactive |
| ZKSCAN7 | -0.17 | inactive |
| ZKSCAN7 | 0.45 | inactive |
| ZKSCAN7 | 1.45 | inactive |
| AIFM1 | -1.12 | inactive |
| AIFM1 | -0.13 | inactive |
| AIFM1 | -0.35 | inactive |
| AIFM1 | 0 | inactive |
| TRAF3 | 0.02 | inactive |
| TRAF3 | -0.96 | inactive |
| TRAF3 | -0.8 | inactive |
| TRAF3 | 0.58 | inactive |
| CEACAM7 | 1.42 | inactive |
| CEACAM7 | 0.54 | inactive |
| CEACAM7 | 0.11 | inactive |
| CEACAM7 | 0.86 | inactive |
| FAM186B | 0.05 | inactive |
| FAM186B | -0.19 | inactive |
| FAM186B | -0.38 | inactive |
| FAM186B | -0.17 | inactive |

Entries above with an active call (5):
| Target gene | TNF reporter robust z-score | Call |
| --- | --- | --- |
| SLC38A3 | -1.8 | active |
| SLC38A3 | -1.84 | active |
| CTDNEP1 | 2.96 | active |
| HPCAL4 | -1.52 | active |
| ALX1 | 4.68 | active |
